# Test results from PubChem BioAssay AID624491 (Broad Institute, 2012).
# The whole screen tested about 1,800 compounds, of which about 1,400 (78%) were called active. So high a share suggests a set chosen from earlier hits. Inconclusive means that the source gave no clear call. Such entries were picked first, then a sample of the others.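 How the source made its calls: active means fitted curve crossing a set activation limit at or below the highest valid dose tested; inconclusive means flat fit at 30 to 70% activation, or poor fit; inactive means the rest, including signal decreases.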
# Assay: N-linked glycosylation inhibitors, luciferase reporter, dose response, D54 ERlucT cells, luminescence, cherry-picks (AID 624491);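 further: signal gain reflects blocked N-linked glycosylation of a luciferase reporter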
# Details: 24 h, 100% = twice neutral-control luminescence; at 19.5 µM (top of the series) unless noted
row,Structure (SMILES),activation (NLG inhibition)
1,COc1ccccc1-c1csc(C(NC(C)=O)c2cccc(F)c2)n1 (stereo not given),inconclusive: 16.1%
2,CC1(C(=O)NCc2ccccc2)Cc2c(-c3cccc(C(F)(F)F)c3)ccnc2O1 (stereo not given),inconclusive: 106%
3,CCOc1ccc(C2c3cc(OC)c(OC)cc3CC(=O)N2c2ccc(OC)cc2)cc1 (stereo not given),inconclusive: 73.6%
4,Brc1ccc(CSc2ccc3nnc(-c4cccnc4)n3n2)cc1,inconclusive: 71.4%
5,COc1ccccc1-c1cc(NC=O)c2ncc(-c3ccc(S(C)(=O)=O)cc3)n2c1,inconclusive: 74.5%
6,CC1(C(=O)NCCc2ccccc2)Cc2c(-c3cccc(C(N)=O)c3)ccnc2O1 (stereo not given),inconclusive: 58.1%
7,CCCCCCCCCCn1c2c(c(=N)c3c1CCC3)CCC2,inactive: 86.7%
8,COc1cc(NC(=O)N2CCc3nc(NCc4cccc(Oc5ccccc5)c4)ncc3C2)cc(OC)c1OC,inactive: 33.2%
9,Cc1ccc(/C=N/NC(=O)c2c(C)nc3ccc(Br)cn23)cc1,inconclusive: 45.1%
10,COc1ccc(NS(=O)(=O)c2cc(C)ccc2NC(=O)c2cc(C)oc2C)cc1,inconclusive: 41.8%
11,Cc1ccc(C(=O)CSc2nn3c(=O)c(C(C)(C)C)nnc3s2)cc1,inconclusive: 55%
12,COc1ccc(-c2cc(-c3ccccc3)c(C#N)c(S(C)=O)n2)cc1 (stereo not given),inactive: 1.33%
13,CCSc1nccc(-c2nn(-c3ccc(C)cc3)ccc2=O)n1,inconclusive: 42%
14,COC(=O)CNC(c1ccccc1Cl)c1cc(Br)ccc1NC(=O)CCN1CCOCC1 (stereo not given),inactive: -5.06%
15,Cc1ccc2c(CNCc3ccccc3)cc(=O)oc2c1,inactive: 39.2%
16,CNC(=O)c1cccc2nc3ccccc3nc12,inactive: 18.8%
17,Cc1ccc2c(c1)[C@H]1[C@H](CO2)[C@H](c2ccccc2)[C@]2(C)C(=O)Nc3cc(Cl)ccc3C(=O)N12,inconclusive: 48.4%
18,CNC(=O)CSc1nc2nn(-c3ccccc3)c(=O)c-2c2n1CCCCC2,inconclusive: 104%
19,Cc1cc2cc(CNC(=O)Cc3cccs3)ccc2n1C,inactive: -4.54%
20,COc1cc(C(=O)Nc2ccc3c(c2)ncn3C)cc(OC)c1OC,inconclusive: 55.4%

# Molecules shown so far with a Cl atom (2):
row,Structure (SMILES),activation (NLG inhibition)
14,COC(=O)CNC(c1ccccc1Cl)c1cc(Br)ccc1NC(=O)CCN1CCOCC1 (stereo not given),inactive: -5.06%
17,Cc1ccc2c(c1)[C@H]1[C@H](CO2)[C@H](c2ccccc2)[C@]2(C)C(=O)Nc3cc(Cl)ccc3C(=O)N12,inconclusive: 48.4%

# Continuation.

row,Structure (SMILES),activation (NLG inhibition)
1,O=C1C=C(Nc2ccc(Cl)cc2Cl)CC(c2ccco2)C1 (stereo not given),inconclusive: 61.3%
2,CC(=O)N(C(C)=O)n1c(C)nc2sc3c(c2c1=O)CCCC3,inactive: -43.7%
3,O=C(Nc1cc(=O)[nH]c(=O)[nH]1)c1cc(Cl)ccc1Cl,inconclusive: 59.9%
4,O=c1cc(-c2ccccc2)[nH]n1-c1nc2ccccc2[nH]1,inactive: -34.9%
5,O=C(Nc1cccc(-c2nc3ncccc3o2)c1)c1sc2ccccc2c1Cl,inactive: 0.539%
6,Cc1cc(C)cc(N=Cc2ccc([N+](=O)[O-])s2)c1,inconclusive: 112%
7,COCCCNC(=O)C(=O)Nc1ccc2c(c1)N(S(=O)(=O)c1cccs1)CCC2,inconclusive: 54.3%
8,COc1ccc(C(=O)c2sc(Nc3ccccc3)nc2N)cc1,inactive: 22.2%
9,COc1ccc(/C=C2\COc3ccccc3C2=O)cc1OC,inactive: -3.49%
10,CCOc1ccc(C(=O)COC(=O)Cc2n[nH]c(=O)c3ccccc23)cc1,inconclusive: 10.5%
11,COc1ccc(OC)c(N(CC(=O)Nc2cccnc2)S(=O)(=O)c2ccc(C)cc2)c1,inactive: 38.7%
12,CC1COCC(C)N1C1=C(Cl)C(=O)c2ccccc2C1=O (stereo not given),inconclusive: -10.1%
13,O=C(Oc1ccc(Br)cc1C(=O)/C=C/c1ccccc1F)c1ccco1,inconclusive: 76.9%
14,CCOc1ccc(Br)cc1C1=NN(C(C)=O)C(c2ccc([N+](=O)[O-])s2)O1 (stereo not given),inconclusive: 44.7%
15,COc1ccc(OC)c(NS(=O)(=O)c2ccc(N3CCCC3=O)cc2)c1,inactive: 18.1%
16,CC(C)Nc1ccc(C(CC(N)=O)NC(=O)c2ccc(Br)cc2)cc1[N+](=O)[O-] (stereo not given),inconclusive: 39.5%
17,NC(=O)C1CCN(C2=C(Cl)C(=O)c3ccccc3C2=O)CC1,inconclusive: 3.67%
18,CC(=O)c1ccc(Nc2c3c(nc4ccccc24)CCCC3)cc1,inactive: 52.1%
19,CCOC(=O)n1c(=O)n(Cc2ccc(OC)cc2)c2ccccc21,inactive: 8.03% [at 5 µM]
20,CC1(C(=O)NCc2ccccc2)Cc2c(-c3ccc4c(c3)OCO4)ccnc2O1 (stereo not given),inactive: 48.3%
